PubChem BioAssay AID1259254, NCATS – 2017
Shown is a random part of about 59,000 reagents. About 1,550 of them (2.6%) count as active. 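G2 share is only a proxy for re-replication; each gene was hit by three separate siRNAs, and active genes were retested.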 The numbers tell different reagents against one gene apart. Further read-outs or replicates are left out here. Not given: the amount of reagent.

Test: 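Gene knock-downs that lead to re-replication, shown by excess G2 DNA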 (primary screen)
Cells: human HCT116 colorectal cancer cells
Reagents: single siRNA against human genes
Timing: 3 days
Detection: 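Imaged Hoechst DNA stain sorts each cell into a cycle phase by DNA amount; per plate, G2 fraction set to 0% for non-targeting and 100% for GMNN siRNA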
Reading the numbers: G2 robust z-score: higher = more G2 cells, more excess DNA replication
Active means: 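An siRNA counts as active if its G2 robust z-score lies at least 5 MADs above the screen median; here such calls match roughly 38% of GMNN control or more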

After knock-down of SPPL2B #1, the record shows G2 robust z-score 4.53; inactive.
SPPL2B #2 scored G2 robust z-score 1.16; inactive.
Against SPPL2B #3, the entry reads G2 robust z-score -0.444; inactive.
WWOX #1 gave G2 robust z-score -0.429; inactive.
WWOX #2 showed G2 robust z-score 1.95; inactive.
Knock-down of WWOX #3 resulted in: G2 robust z-score -0.717; inactive.

Entries above whose gene name begins with S or s:
SPPL2B #1: G2 robust z-score = 4.53; activity call = inactive
SPPL2B #2: G2 robust z-score = 1.16; activity call = inactive
SPPL2B #3: G2 robust z-score = -0.444; activity call = inactive

Further reagents:
AIF1 #1 gave G2 robust z-score 0.00915; inactive.
AIF1 #2 scored G2 robust z-score -0.385; inactive.
After knock-down of AIF1 #3 the results were G2 robust z-score 1.29; inactive.
Against LOC441052 #1, the entry reads G2 robust z-score -0.59; inactive.
Against LOC441052 #2 the deposit lists G2 robust z-score -0.235; inactive.
With knock-down of LOC441052 #3, the screen gave G2 robust z-score -0.291; inactive.
